Publication PMC4496374
No constants are given. Whether binding was seen depends on the method and setting. In cells and extracts the contact can be indirect. Some binding calls cover weakened binding; strength is not graded here. Sequences can lack the tags named with a protein.

Sequences of proteins named here, by UniProt entry; tags and fusion partners are left off.
UniProt Q13535: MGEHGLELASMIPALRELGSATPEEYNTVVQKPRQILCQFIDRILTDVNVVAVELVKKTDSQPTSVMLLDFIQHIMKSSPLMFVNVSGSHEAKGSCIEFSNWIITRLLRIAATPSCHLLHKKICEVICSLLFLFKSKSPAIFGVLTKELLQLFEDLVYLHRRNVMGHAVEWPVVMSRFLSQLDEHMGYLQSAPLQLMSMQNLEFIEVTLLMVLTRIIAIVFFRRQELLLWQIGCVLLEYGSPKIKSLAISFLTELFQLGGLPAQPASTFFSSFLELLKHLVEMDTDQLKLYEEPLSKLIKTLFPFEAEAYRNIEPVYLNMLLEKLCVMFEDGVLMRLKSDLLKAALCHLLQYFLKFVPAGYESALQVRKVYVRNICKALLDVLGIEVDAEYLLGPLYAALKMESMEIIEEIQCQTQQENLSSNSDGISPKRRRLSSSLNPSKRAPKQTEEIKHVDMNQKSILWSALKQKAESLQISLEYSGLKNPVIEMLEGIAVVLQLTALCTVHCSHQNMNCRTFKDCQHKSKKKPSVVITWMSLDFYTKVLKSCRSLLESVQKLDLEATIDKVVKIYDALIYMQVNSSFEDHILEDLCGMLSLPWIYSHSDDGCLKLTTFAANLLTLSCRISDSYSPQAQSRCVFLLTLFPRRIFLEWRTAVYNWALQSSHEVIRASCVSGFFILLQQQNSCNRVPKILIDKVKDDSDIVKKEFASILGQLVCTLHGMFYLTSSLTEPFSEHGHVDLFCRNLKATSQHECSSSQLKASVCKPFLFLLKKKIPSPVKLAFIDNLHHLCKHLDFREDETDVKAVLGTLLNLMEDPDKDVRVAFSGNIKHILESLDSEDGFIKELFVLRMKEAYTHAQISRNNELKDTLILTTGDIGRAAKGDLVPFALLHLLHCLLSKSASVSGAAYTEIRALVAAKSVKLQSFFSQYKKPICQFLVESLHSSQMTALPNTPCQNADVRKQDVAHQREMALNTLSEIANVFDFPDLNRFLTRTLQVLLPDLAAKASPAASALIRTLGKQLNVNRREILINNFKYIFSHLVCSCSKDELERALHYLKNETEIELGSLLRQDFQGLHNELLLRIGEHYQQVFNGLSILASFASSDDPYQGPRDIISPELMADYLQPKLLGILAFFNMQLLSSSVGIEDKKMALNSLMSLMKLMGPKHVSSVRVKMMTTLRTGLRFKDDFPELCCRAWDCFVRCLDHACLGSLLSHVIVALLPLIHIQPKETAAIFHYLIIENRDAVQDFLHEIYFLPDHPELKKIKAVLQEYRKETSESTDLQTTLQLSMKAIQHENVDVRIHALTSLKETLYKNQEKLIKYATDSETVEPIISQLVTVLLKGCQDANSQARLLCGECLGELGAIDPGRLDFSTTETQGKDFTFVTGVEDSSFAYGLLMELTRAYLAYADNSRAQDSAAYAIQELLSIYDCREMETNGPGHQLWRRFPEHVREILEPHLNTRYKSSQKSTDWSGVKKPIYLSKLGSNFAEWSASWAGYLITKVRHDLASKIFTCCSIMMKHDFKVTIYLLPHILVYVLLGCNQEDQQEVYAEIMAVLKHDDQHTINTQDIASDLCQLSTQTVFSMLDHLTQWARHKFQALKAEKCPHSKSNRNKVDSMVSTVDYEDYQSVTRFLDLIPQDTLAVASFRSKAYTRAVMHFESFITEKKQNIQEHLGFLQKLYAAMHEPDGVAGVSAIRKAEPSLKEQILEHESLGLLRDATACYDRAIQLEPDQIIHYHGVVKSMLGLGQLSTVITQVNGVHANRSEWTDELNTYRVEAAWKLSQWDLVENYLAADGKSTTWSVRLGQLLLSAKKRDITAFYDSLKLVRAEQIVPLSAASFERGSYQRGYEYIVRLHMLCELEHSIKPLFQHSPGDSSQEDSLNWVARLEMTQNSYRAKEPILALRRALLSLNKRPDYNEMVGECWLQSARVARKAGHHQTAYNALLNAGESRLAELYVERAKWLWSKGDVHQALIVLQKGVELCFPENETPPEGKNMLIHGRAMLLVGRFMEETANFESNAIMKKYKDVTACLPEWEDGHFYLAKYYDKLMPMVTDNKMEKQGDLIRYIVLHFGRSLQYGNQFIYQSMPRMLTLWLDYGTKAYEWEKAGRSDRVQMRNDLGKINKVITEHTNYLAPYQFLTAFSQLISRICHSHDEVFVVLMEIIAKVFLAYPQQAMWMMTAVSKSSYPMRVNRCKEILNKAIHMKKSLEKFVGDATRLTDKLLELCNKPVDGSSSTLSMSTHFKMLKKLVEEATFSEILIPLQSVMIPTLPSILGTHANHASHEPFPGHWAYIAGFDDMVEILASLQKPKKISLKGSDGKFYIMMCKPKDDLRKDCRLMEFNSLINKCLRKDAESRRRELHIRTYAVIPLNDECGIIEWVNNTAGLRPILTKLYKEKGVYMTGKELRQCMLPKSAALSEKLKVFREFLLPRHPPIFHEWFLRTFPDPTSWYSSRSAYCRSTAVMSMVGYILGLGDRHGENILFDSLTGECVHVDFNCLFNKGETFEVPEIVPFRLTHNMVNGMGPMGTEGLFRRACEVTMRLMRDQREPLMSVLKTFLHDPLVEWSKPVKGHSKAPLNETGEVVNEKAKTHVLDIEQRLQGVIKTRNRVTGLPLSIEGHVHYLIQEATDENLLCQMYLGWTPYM

Columns and labels:
[1] = target: T1, GST-tagged middle fragment of INPP4B (aa200-aa760) (UniProt O15327); assay: pull-down; bacterially expressed GST-tagged INPP4B fragments as bait; lysates of unchallenged 293T cells overexpressing Flag-tagged ATR or BRCA1; immunoblot; input 1% of lysate; only the target purified
T1 sequence: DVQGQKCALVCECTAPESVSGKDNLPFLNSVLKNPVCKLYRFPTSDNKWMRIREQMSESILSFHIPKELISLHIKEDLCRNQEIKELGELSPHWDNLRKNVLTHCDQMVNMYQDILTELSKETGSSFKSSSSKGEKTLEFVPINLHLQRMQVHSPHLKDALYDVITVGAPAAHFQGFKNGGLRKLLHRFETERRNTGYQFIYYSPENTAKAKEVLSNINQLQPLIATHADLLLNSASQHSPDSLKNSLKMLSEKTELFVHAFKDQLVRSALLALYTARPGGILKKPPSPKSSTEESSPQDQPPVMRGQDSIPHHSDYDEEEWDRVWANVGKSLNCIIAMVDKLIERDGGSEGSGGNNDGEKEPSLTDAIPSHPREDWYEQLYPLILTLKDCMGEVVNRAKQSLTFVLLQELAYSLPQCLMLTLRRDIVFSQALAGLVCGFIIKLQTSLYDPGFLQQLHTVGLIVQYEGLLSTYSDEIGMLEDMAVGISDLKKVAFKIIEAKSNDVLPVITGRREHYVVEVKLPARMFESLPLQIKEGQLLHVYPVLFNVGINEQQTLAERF

[2] = target: T2, GST-tagged N-terminal fragment of INPP4B (aa1-aa460) (UniProt O15327); assay: as above
T2 sequence: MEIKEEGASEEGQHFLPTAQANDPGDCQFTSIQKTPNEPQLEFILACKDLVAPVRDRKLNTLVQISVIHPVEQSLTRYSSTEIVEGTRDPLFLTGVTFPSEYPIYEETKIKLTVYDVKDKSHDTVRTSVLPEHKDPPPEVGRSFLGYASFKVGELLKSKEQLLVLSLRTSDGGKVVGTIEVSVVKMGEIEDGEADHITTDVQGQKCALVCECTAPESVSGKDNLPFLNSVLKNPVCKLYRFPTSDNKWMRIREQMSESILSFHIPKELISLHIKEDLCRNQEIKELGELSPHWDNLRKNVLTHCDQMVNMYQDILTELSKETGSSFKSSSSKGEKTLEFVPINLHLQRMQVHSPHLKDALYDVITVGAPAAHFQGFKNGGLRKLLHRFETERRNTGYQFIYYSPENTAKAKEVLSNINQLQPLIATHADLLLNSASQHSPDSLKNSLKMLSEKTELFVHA

[3] = target: T3, GST-tagged C-terminal fragment of INPP4B (aa460-aa924) (UniProt O15327); assay: as above
T3 sequence: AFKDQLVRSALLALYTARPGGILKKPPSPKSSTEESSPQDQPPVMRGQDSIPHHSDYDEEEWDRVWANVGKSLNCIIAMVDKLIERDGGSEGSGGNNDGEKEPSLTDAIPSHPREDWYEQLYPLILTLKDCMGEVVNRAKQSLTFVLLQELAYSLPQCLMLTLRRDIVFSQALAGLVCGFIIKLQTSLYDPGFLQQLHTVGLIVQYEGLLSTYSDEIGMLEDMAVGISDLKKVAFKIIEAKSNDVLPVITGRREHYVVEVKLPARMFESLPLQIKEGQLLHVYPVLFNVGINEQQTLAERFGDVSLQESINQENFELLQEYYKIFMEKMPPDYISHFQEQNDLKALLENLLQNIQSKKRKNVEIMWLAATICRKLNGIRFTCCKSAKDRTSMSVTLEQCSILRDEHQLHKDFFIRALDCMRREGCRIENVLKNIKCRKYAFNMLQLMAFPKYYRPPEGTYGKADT

[4] = target: T4, Flag-tagged INPP4B (inositol polyphosphate 4-phosphatase type II) (UniProt O15327); assay: co-IP; 293T cells transfected with Flag-INPP4B or empty Flag vector, lysed 48 h after transfection; lysates incubated with M2 (anti-FLAG) beads, washed in TBS-T and TBS; western blot
T4 sequence: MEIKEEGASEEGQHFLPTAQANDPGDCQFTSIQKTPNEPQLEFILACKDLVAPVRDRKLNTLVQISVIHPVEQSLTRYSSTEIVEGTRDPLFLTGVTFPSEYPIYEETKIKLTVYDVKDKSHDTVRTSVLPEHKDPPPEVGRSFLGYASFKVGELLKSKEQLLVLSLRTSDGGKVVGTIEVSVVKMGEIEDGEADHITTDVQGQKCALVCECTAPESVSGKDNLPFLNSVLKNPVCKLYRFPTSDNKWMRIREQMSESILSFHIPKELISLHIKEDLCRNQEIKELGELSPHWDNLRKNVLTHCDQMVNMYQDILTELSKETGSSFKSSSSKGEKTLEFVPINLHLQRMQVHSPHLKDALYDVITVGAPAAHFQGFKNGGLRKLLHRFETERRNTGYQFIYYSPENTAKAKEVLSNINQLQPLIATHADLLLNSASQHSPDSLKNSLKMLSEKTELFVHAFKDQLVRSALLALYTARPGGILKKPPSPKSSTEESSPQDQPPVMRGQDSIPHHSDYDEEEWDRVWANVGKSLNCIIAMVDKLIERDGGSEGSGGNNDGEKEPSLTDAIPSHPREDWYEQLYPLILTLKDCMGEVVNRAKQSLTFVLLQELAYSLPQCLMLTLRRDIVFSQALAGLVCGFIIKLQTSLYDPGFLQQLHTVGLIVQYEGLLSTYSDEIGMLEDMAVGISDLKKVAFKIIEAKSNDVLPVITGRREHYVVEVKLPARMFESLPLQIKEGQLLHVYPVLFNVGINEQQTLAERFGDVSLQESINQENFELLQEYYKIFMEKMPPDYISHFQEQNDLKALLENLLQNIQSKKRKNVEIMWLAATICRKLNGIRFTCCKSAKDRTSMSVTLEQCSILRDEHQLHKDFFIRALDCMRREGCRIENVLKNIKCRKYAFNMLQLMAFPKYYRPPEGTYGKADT

Row | binding [1] | binding [2] | binding [3] | binding [4] | Substance
1 | binds | binds | no binding | – | Flag-tagged ATR (from UniProt Q13535 1-2644)
2 | – | – | – | binds | ATR (from UniProt Q13535 1-2644)
